# Library screening results

Chains of the proteins cited; added tags and fusions are not shown.
UniProt E9BF75, entry or part of it: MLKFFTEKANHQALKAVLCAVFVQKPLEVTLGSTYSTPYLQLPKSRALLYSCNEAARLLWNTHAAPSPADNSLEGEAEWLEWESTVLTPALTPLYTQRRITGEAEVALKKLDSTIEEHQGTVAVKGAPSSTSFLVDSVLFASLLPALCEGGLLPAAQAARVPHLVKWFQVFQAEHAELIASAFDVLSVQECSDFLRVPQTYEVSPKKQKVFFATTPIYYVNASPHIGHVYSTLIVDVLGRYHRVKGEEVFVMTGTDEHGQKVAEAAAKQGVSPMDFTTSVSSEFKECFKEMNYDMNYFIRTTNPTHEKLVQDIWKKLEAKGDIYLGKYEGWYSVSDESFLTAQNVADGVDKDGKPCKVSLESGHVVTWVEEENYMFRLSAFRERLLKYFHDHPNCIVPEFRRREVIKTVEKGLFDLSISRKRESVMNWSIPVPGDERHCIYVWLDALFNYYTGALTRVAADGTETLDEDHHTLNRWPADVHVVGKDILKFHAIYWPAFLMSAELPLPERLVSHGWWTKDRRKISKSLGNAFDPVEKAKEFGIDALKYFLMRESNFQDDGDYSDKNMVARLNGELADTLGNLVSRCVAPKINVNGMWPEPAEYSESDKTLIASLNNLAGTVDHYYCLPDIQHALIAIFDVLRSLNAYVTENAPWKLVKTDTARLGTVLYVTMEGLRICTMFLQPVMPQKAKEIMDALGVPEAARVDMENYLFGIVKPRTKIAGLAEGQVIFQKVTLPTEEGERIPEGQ

Measurements from “University of Dundee, Small-Polar-MMV Screening Library” (2021), ChEMBL document CHEMBL3988442.

Mtb heat-shock: 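Assay on Mycobacterium tuberculosis, filed only as a heat shock assay from Cornell; the read-out is not stated. The concentration is filed as 10 mM, unlikely as a test dose, so the dose is not known. Direction is inferred from retests: higher values go with stronger inhibition. About 69,000 compounds were tested under these conditions; 1.4% (about 930) showed 50% or more at least once.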
LdMetRS: 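Primary screen of methionyl-tRNA synthetase; the read-out is not stated. Target: Methionyl-tRNA synthetase (putative), Leishmania donovani (UniProt E9BF75). The test concentration is not given. The values are filed as inhibition. About 68,000 compounds were tested under these conditions; 0.035% (about 24) showed 50% or more at least once.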
Mtb growth Cornell: 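Whole-cell assay for inhibitors of Mycobacterium tuberculosis growth, labelled Cornell in the record; the read-out is not stated. The concentration is filed as 10 mM, unlikely as a test dose, so the dose is not known. The record gives no direction; compounds strong in two other growth screens of this library score well above the rest, so higher reads as stronger inhibition. Of about 53,000 compounds tested this way, about 900 (1.7%) reached 50% or more in at least one test.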

Results are percentages, as filed.
The controls that fix the scale are not given in the record; negative values are as filed.
Compounds were drawn at random from those tested, without regard to their results.
A dash means the value is not listed here; it may have been measured.

Compound | Mtb heat-shock | LdMetRS | Mtb growth Cornell
O=c1c2ccccc2nc2n1C(CSc1ccc(Cl)cc1Cl)CN2 (stereo unspecified) | 10.07 | 12.46 | 11.92
Cc1nn(C)c(N(C)C)c1CNC(C)c1cccc(OC(C)C)c1 (stereo unspecified) | 9.545 | 10.8 | 54.17
[H][C@@]12CCCO[C@]1([H])[C@H](OCC1CCOCC1)CN2C(=O)c1ccc(C)o1 | -4.532 | - | -21.03
O=C(c1cn(CCN2CCCCC2)nn1)N1CCCO1 | 4.109 | 16.12 | -
COCC(=O)N1CCC2(CC1)CN(c1ccccn1)CCO2.O=C(O)C(F)(F)F | -13.33 | - | 16.39
CSCCCNc1ncnc2cccc(F)c12 | -5.702 | 8.04 | -13.17
CCOCC1CC2(CCN(Cc3ccccn3)CC2)CO1 (stereo unspecified) | 1.604 | 11.59 | 8.255
COc1c(NC(=O)N(C)CCOc2ccc(F)cc2)c(C)nn1C | 14.06 | 10.87 | 24.32
CC(C)c1nc(C(=O)N2CCOCC2CC(=O)c2ccco2)cs1 (stereo unspecified) | 6.87 | 23.66 | 27.24
COc1ccc(CCC2CCCCN2)cc1OC (stereo unspecified) | -7.06 | 4.45 | -6.712
CCCn1cc(C(=O)NCCC(=O)NC2CCCCC2)c(C)n1 | -8.6 | 17.39 | -3.657
COc1ccc2c(ccn2CCC(=O)N[C@H](C(=O)O)C(C)C)c1 | 15.08 | -0.7752 | -5.211
CCc1csc(C2CCCN(C(=O)c3ccc(OC)nn3)C2)n1 (stereo unspecified) | 0.6559 | 18.22 | 13.66
Cc1nonc1C1CCCN1CCC(=O)N1CCc2ccccc2C1 (stereo unspecified) | -5.212 | 3.846 | 0.03992
N#Cc1ccc(NC(=O)N2CCCCC2CN2CCCC2=O)cc1 (stereo unspecified) | 8.616 | 10.22 | -
CN(C)[C@@H]1CN(C(=O)c2cc3ccc(F)cc3[nH]2)C[C@H]1O | 2.44 | 9.006 | 9.034
Cn1ccnc1C(=O)N1CCC2(CCN2c2ncccn2)C1 (stereo unspecified) | - | 14.21 | -
COc1ccc(-c2cc(CN)ccc2F)c(OC)c1OC | -14.3 | 0.3484 | -9.203
Fc1ccc(COCC2CCN(Cc3ccccn3)CC2)cc1 | - | 13.84 | -
Cc1cc(Oc2ccccc2)nc(C2CCCCN2)n1 (stereo unspecified) | -11.32 | 10.11 | -27.83
CN1C(=O)COc2ccc(C(=O)Cn3cnc4ccsc4c3=O)cc21 | -11.8 | 12.83 | -18.7
O=C(O)C(F)(F)F.[H][C@@]12C[C@H](C(=O)NC)CN(CC3CC3)[C@]1([H])CCO2 | -5.578 | - | 21.7
Cc1ccc2nc(C(=O)N3CC(c4cccnc4)C3)cn2c1 | -19.8 | 20.87 | 13.66
CC(C)C(=O)N1CCN(C(=O)CCc2nnc(-c3ccccc3)o2)CC1 | 13.95 | 6.103 | 4.537
COC[C@@H]1CCC[C@]12CN(Cc1cccc(C)n1)CCO2 | - | 7.054 | -
Cc1cn(CC(=O)NC2CCC(C(=O)O)CC2)c2ccccc12 (stereo unspecified) | 3.305 | 11.61 | -40.7
Cc1oc(-c2ccoc2)nc1CN1CCCCC1CCc1ccccc1 (stereo unspecified) | 20.2 | 11.37 | 30.23
CCC1(c2ccc(NS(=O)(=O)N(C)C)cc2)CCC(=O)NC1=O (stereo unspecified) | -3.781 | 4.054 | -3.895
COc1c(CNC(c2ccccc2F)c2nccn2C)c(C)nn1C (stereo unspecified) | -25.27 | 15.3 | -
CC(C)CN1CCc2[nH]cnc2C12CCN(C(=O)c1ccccn1)CC2 | 6.568 | 11.73 | 22.08
Cc1nc(CSCCC(=O)NCC(=O)NC(C)C)cs1 | 7.689 | 11.91 | 34.48
CC(C)NC(=O)C[C@@H]1CCNC[C@@H]1Cc1cc(-c2ccccn2)on1 | -7.881 | 7.797 | -18.91
CC(C)CS(=O)(=O)N1C[C@H]2C[C@H](C(=O)NCc3ccccc3)[C@@H](C1)O2 | - | 10.37 | -
Cc1cc(C2CCCN2Cc2nnc(-c3ccco3)o2)on1 (stereo unspecified) | -2.737 | 0 | -
Cc1ccnc(OC[C@@]23CCO[C@@H]2CCN(c2ncc(F)cn2)C3)n1 | - | 18.98 | -
CN(CC1CCN(CCO)CC1)CC(O)c1ccc(F)cc1F (stereo unspecified) | -16.79 | 10.63 | -48.16
[H][C@@]12CS(=O)(=O)C[C@]1([H])N(S(=O)(=O)c1ccccc1OC)CCN2CCC | -27.94 | - | -
O=C(c1ccc2[nH]ccc2c1)N1CCn2cnc(COCC3CC3)c2C1 | 54.29 | 46.08 | 19.12
c1ccc2c(c1)OCCCC2NCc1nnc2n1CCCCC2 (stereo unspecified) | 7.956 | 15.36 | 0.173
COc1coc(CN2CCCC(CCc3ccccc3C)C2)cc1=O (stereo unspecified) | 4.963 | 14.76 | 17.8
CC(C(=O)N1CCCN(Cc2ccc(C#N)cc2)CC1)n1cncn1 (stereo unspecified) | -1.835 | 15.3 | -
Cc1cc(CN2CCN(C(=O)NCc3ccc(C)s3)CC2)no1 | 24.88 | 7.042 | -4.066
CNC(=O)[C@H]1CC[C@@H]2[C@@H](CCN2CCOCc2ccccc2)O1 | - | 8.964 | -
CO[C@H]1CCN(c2nnc(C)s2)C[C@@H]1Cc1ccccc1.O=C(O)C(F)(F)F | -16.08 | - | 35.25
CCN1CCN(C(=O)CCc2c(C)noc2Cl)CC1 | 10.05 | 12.6 | 12.42
Cc1occc1C(=O)Nc1cccc(C(=O)OCC2CCCN2)c1 (stereo unspecified) | - | 6.949 | -
CN(Cc1cn2c(n1)CN(C1CCOC1)CC2)Cc1ccco1 (stereo unspecified) | - | 9.623 | -
CC(C)Cc1ccc(C(=O)Cn2cnnc2[S+](C)[O-])cc1 (stereo unspecified) | 59.76 | 12.1 | -
O=C1CC(NS(=O)(=O)N2CCOCC2)CN1Cc1ccc(F)cc1 (stereo unspecified) | -1.194 | 4.872 | -27.82
O=C(CCc1ccccn1)NC1CCCN(C2Cc3ccccc3C2)C1 (stereo unspecified) | -7.271 | 12.32 | 7.315
O=C(Nc1ccccc1)C1CN(Cc2cccs2)CC12CCOCC2 (stereo unspecified) | -14.18 | 0 | -20.74
CS(=O)(=O)C1CCN(S(=O)(=O)c2ccc(F)c(F)c2)CC1 | 8.655 | 11.27 | 25.65
OCCOc1ccc(NCc2cccc3cccnc23)cn1 | -8.648 | 5.575 | -16.98
CCOCC1c2c(cnn2CC2CC2)CCN1Cc1nccs1 (stereo unspecified) | - | 8.493 | -
Cc1nc(C2CCCN2Cc2ncc(C(C)C)o2)no1 (stereo unspecified) | -8.077 | -2.098 | -
Cc1noc([C@@H]2C[C@H]3OCC[C@H]3N(CC3CCCC3)C2)n1 | - | 16.19 | -
CCc1nc(C)c([C@H]2CN(C)C[C@@H]2C(=O)Nc2ccc3[nH]ncc3c2)[nH]1 | -26.12 | 13.11 | -12.58
c1ncn(Cc2cnc3n2CCN(Cc2ccsc2)CC3)n1 | - | 10.1 | -
Cc1noc2nc(C3CCCN(Cc4cccnc4)C3)cc(C(F)F)c12 (stereo unspecified) | 0.8389 | 15.62 | 16.6
Cc1cccc(-c2nc(CN3CC(n4nc(C)cc4C)C3)no2)c1 | -25.8 | 13.9 | 18.28
Cc1n[nH]cc1CNCc1ccnc(OCC(F)(F)F)c1 | - | 13.59 | -
CCn1cc(CN2CCCN(C(=O)c3cc(C)no3)CC2)cn1 | 2.688 | 7.735 | -
c1cc(COC[C@]23COC[C@H]2CN(Cc2ccncc2)C3)ccn1 | - | -0.6667 | -
COCC[C@]1(O)CCN(Cc2nc(C(C)C)cs2)C[C@H]1C | 3.324 | 11.75 | 36.97
CCOc1ccc(CNCc2ccc(C(=O)NC)cc2)cc1OCC | -4.882 | 22.73 | 8.963
Cn1nc(CNC(=O)C2COc3ccccc3O2)cc1C1CC1 (stereo unspecified) | -7.363 | 5.882 | 1.034
COc1cccc(-c2cc(C(=O)N3N=C(C)CC3(O)C(F)F)[nH]n2)c1 (stereo unspecified) | -4.614 | 10.76 | 21.19
[H][C@@]12CC(=O)N(Cc3csc(C)n3)[C@@]1([H])CCN2S(C)(=O)=O | -6.713 | - | 1.863
Cc1ccc(Nc2nccc(C3CCN(C(=O)CO)C3)n2)nc1 (stereo unspecified) | -15.39 | 17.72 | -6.464
COCCn1cc(NCc2c[nH]nc2-c2ccc(OC)cc2)cn1 | -9.138 | 5.686 | -6.217